Results on 18 molecules are retold here after paper PMC10163288.

The list shows a part of the results.

Sequences and labels used below:
B1: il10ra_site1_normal_mot_HHH_b2_00943_af2_000000149_0001_1_17_H_._HHH_b2_05085_0001_0000400026_0000001_0_af2pred_0001 (protein)
chain: SSSSSAEELIRLALEAVKLLGDEEAAKEIEELLEEAEKKGDSRLAHQVAQIAYEVVKESKSSSSS
B2: il10ra_site1_sap_21_mot_104c758fc23488854646035ccb2100c6_0001_000000282_0001_15_29_H_._203a44625a3a2ba431098544127a80a6_0001_0001_0000100001_0000002_0_0001 (protein)
chain: SSSEEEVEELVKEVERVAEERGDPEARRVAEFLEAMARQAREQNNEEALRSISWALRAFREVFSS
B3: il10ra_site1_normal_mot_HHH_b1_06914_000000280_0001_1_18_H_._HHH_b1_05137_0001_0000100004_0000001_0 (protein)
chain: SSSSDEETEEIYELLRRAAELLAEGNPEEAKEVLEEARELAEEINSEMFRFAVRLLLRDLSSSSS
B4: il10ra_site1_normal_mot_HHH_b1_02708_af2_000000019_0001_23_39_H_._e0a7e7c149437fae01dc270677924e9f_0001_1_0001_0000100001_0000001_0 (protein)
chain: SLEEEVTELVRELGLPPMVESAVRSFVLAKELGDEEYLKIAEHFLEAQARRDPNVEEVLRFLRER
B5: il10ra_site1_normal_mot_HHH_b2_01447_af2_000000258_0001_1_20_H_._HHH_b1_04789_af2_0001_0000200017_0000001_0 (protein)
chain: SSSSDELQEVMELIRRLSEAIQEGDEELVEKLAEEAERLARELNNPILEFSVRHAVRLFENSSSS
B6: il10ra_site1_normal_mot_HHH_b2_02337_000000026_0001_38_52_H_._HHH_b1_00071_0001_0000200031_0000001_0 (protein)
chain: SSSSSEEVEELIELVEELLRQGNYEEALRVVWRAVHLAVELDDPELIQELFELTHRLARGSSSSS
B7: il10ra_site1_normal_mot_HHH_b1_03262_af2_000000181_0001_43_57_H_._HHH_b2_06532_0001_0000200016_0000001_0_af2pred_0001 (protein)
chain: SSSSSHEEALRRLLKAIRLALRQGDEEEAKLALRFVKFLAEEANDDEVLREVEKLEELLESSSSS
B8: il10ra_site1_sap_22_mot_HHH_b2_07873_af2_000000172_0001_1_19_H_._HHH_b2_07566_af2_0001_0000300011_0000001_0_0001 (protein)
chain: SSSSDASEEVARLLRRVVELDNEGDEEEARELLEEARRLAEEANNDVVLVQVEYLERLLNSSSSS
B9: il10ra_site1_sap_21_mot_HHH_b2_05343_000000235_0001_19_35_H_._HHH_b2_06540_0001_0000100006_0000001_0_0001_af2pred_0001 (protein)
chain: SSSSDEEEERLRRLLEAIKRLIELGDDERAKLTLKIVKLVAELLNDEEIRELVEELERELRSSSS
B10: il10ra_site1_sap_12_mot_HHH_b1_02881_000000046_0001_1_20_H_._HHH_b1_03212_0001_0000100004_0000001_0_0001 (protein)
chain: SSSSDLEEKFIKLAQEAIRYAFRKRDEEALRALWRLVHEFLKKGDPEILEELEELLEELEGSSSS
B11: il10ra_site1_normal_mot_HHH_b1_08477_000000091_0001_40_57_H_._HHH_b1_07800_0001_0000100001_0000001_0_af2pred_0001 (protein)
chain: SSSSDEQEELVELAIKFARRLAEAGDPEAARRIIEAALEQARRNNNEELQEKLEELLEELESSSS
B12: il10ra_site1_sap_19_mot_HHH_b2_02463_af2_000000222_0001_1_19_H_._HHH_b1_03195_0001_0000200026_0000001_0_0001 (protein)
chain: SSSSTDASHEIYRLSREAAELLRNGDPEEAEKLIEEAEELAKEENNRVVLYALRVLLRAIRSSSS
B13: il10ra_site1_normal_mot_8756ee2cf497b5429c717dfc0c0bcfd6_0001_000000186_0001_1_13_H_._HHH_b1_04860_af2_0001_0000200010_0000001_0 (protein)
chain: SSSSNEIEEVYRLSREAAELLHEGNPEEAREVLERARELAEELNNDVTLYAIEYAERQLESSSSS
B14: il10ra_site1_sap_26_mot_HHH_b2_07579_000000275_0001_1_19_H_._HHH_b1_08577_0001_0000100002_0000002_0_0001_af2pred_0001 (protein)
chain: SSSSSSEEEVEELLEQIEELLKRRDRQEVLKLLKRVLKLAFELNDPELLEKVRELLEKLASSSSS
B15: il10ra_site1_sap_15_mot_HHH_b2_06142_af2_000000101_0001_1_18_H_._HHH_b1_08554_0001_0000200016_0000002_0_0001 (protein)
chain: SSSSDAERYVELSIRFARWLFEAGDPEAARFILEAAKHAAERAGNPELKEELEEVLEELEKSSSS
B16: il10ra_site1_sap_22_mot_HHH_b2_04274_000000146_0001_1_19_H_._HHH_b2_06545_0001_0000100004_0000001_0_0001 (protein)
chain: SSSSSDEEIEERVEELIEELEKVSPEEQYELLREAAELAHEANDPELARLVLEASRRVTSSSSSS
B17: il10ra_site1_sap_11_mot_HHH_b2_06497_000000202_0001_1_20_H_._HHH_b2_07590_0001_0000200012_0000001_0_0001 (protein)
chain: SSSSSSEENRRAYELLEEAFEVEDPEEAEELLREAEKLAEEAGNWALLFAIRLLLKDLKSSSSSS
B18: il10ra_site1_sap_17_mot_65b8060e20531850bca9f2e11f97d954_0001_af2_000000137_0001_17_31_H_._HHH_b2_07453_af2_0001_0000300007_0000001_0_0001 (protein)
chain: SSSSSSDEELLKLSMEAFRLALRGNPEKAEEVLEKAEELAERLGDEELLKMIQRLLEALRSSSSS

In the experiment the target is il10ra, Q13651. The experiment is described as follows: yeast display titration.
Turning to B1, the “apparent Kd” value is “inactive: no binding seen”. The result for B2 reads “inactive: no binding seen”; that for B3, “inactive: no binding seen”. As to B4, the “apparent Kd” value was “inactive: no binding seen”.

As to B5, the “apparent Kd” value is “inactive: no binding seen”. The result for B6 reads “inactive: no binding seen”; that for B7, “inactive: no binding seen”; that for B8, “inactive: no binding seen”. The result for B9 reads “inactive: no binding seen”; that for B10, “inactive: no binding seen”. In the case of B11, the “apparent Kd” value was “inactive: no binding seen”.

Turning to B12, the “apparent Kd” value was “inactive: no binding seen”. B13: the “apparent Kd” value is “inactive: no binding seen”. For B14, the “apparent Kd” value was “inactive: no binding seen”.

For B15, the “apparent Kd” value was “inactive: no binding seen”. The result for B16 reads “inactive: no binding seen”. Next, B17: “inactive: no binding seen”; B18: “inactive: no binding seen”.
